US20140051601A1, “METABOLOMIC PROFILING OF CANCER” (METABOLAN INC., priority 2006, published 2014)

Experiment: Urine metabolic profiling, GS major 3 versus GS major 4 prostate cancer
Set-up: species or system human
Details: urine metabolite level; more aggressive (GS major 4) vs less aggressive (GS major 3) prostate cancer

Question: With Cn1c(=O)c2c([nH]c(=O)n2C)n(C)c1=O [1,3-7-trimethyluric acid] as the compound, how does the “% Change in Aggressive PCA” value read?
Answer: −66.55%

Question: With Cn1c(=O)[nH]c2[nH]c(=O)n(C)c2c1=O [1-7-dimethylurate] as the compound, how does the “% Change in Aggressive PCA” value read?
Answer: −62.29%

Question: With Cn1cnc2c(ncn2[C@@H]2O[C@H](CO)[C@@H](O)[C@H]2O)c1=N [1-methyladenosine] as the compound, how does the “% Change in Aggressive PCA” value read?
Answer: 43.02%

Question: With Cn1c(=O)[nH]c2[nH]c(=O)[nH]c2c1=O [1-methylurate] as the compound, how does the “% Change in Aggressive PCA” value read?
Answer: −49.8%

Question: For Cn1c(=O)[nH]c2nc[nH]c2c1=O [1-methylxanthine], which “% Change in Aggressive PCA” value is on record?
Answer: −67.91%

Question: With CC(C)C(O)(CC(=O)O)C(=O)O (stereo not shown) [2-isopropylmalate] as the compound, how does the “% Change in Aggressive PCA” value read?
Answer: 166.3%

Question: With O=C(O)Cc1ccc(O)c(O)c1 [3-4-dihydroxyphenylacetate] as the compound, how does the “% Change in Aggressive PCA” value read?
Answer: 123.2%

Question: With O=S(=O)(O)Oc1c[nH]c2ccccc12 [3-indoxyl-sulfate] as the compound, how does the “% Change in Aggressive PCA” value read?
Answer: −23.75%

Question: Which “% Change in Aggressive PCA” value does the source give for Cn1cncc1C[C@H](N)C(=O)O [3-methylhistidine] here?
Answer: 102.4%

Question: Which “% Change in Aggressive PCA” value does the source give for Cn1c(=O)[nH]c(=O)c2[nH]cnc21 [3-methylxanthine] here?
Answer: −72.5%

Question: With NC(=O)NCCC(=O)O [3-ureidopropionate] as the compound, how does the “% Change in Aggressive PCA” value read?
Answer: 27.57%

Question: With CC(=O)NCCCC(=O)O [4-acetamidobutanoate] as the compound, how does the “% Change in Aggressive PCA” value read?
Answer: 59.98%

Question: With N=C(N)NCCCC(=O)O [4-guanidinobutanoate] as the compound, how does the “% Change in Aggressive PCA” value read?
Answer: 174.7%

Question: With O=C(O)c1ccc(O)cc1 [4-hydroxybenzoate] as the compound, how does the “% Change in Aggressive PCA” value read?
Answer: 71.09%

Question: Which “% Change in Aggressive PCA” value does the source give for O=C(O)C(O)c1ccc(O)cc1 (stereo not shown) [4-hydroxymandelate] here?
Answer: 89.8%

Question: With NC(=O)NCCCC(=O)O [4-ureidobutyrate] as the compound, how does the “% Change in Aggressive PCA” value read?
Answer: 60.31%

Question: For O=C(O)Cc1c[nH]c2ccc(O)cc12 [5-hydroxyindoleacetate], which “% Change in Aggressive PCA” value is on record?
Answer: 84.95%

Question: For O=C1CC[C@@H](C(=O)O)N1 [5-oxoproline], which “% Change in Aggressive PCA” value is on record?
Answer: −29.7%

Question: With C[n+]1cn([C@@H]2O[C@H](CO)[C@@H](O)[C@H]2O)c2nc(N)[nH]c(=O)c21 [7-methylguanosine] as the compound, how does the “% Change in Aggressive PCA” value read?
Answer: 84.95%

Question: With CC(=O)N[C@@H](CCCNC(=N)N)C(=O)O [N-acetylarginine] as the compound, how does the “% Change in Aggressive PCA” value read?
Answer: 85.96%

Question: Which “% Change in Aggressive PCA” value does the source give for CC(=O)N[C@@H](CC(=O)O)C(=O)O [N-acetylaspartate (NAA)] here?
Answer: 94.62%

Question: Which “% Change in Aggressive PCA” value does the source give for CC(=O)N[C@@H](Cc1c[nH]cn1)C(=O)O [N-acetylhistidine] here?
Answer: 59.11%

Question: With CC(=O)N[C@@H](Cc1ccccc1)C(=O)O [N-acetylphenylalanine] as the compound, how does the “% Change in Aggressive PCA” value read?
Answer: 66.64%

Question: Which “% Change in Aggressive PCA” value does the source give for CC(=O)N[C@H](C(=O)O)[C@@H](C)O [N-acetylthreonine] here?
Answer: 78.16%

Question: For CC(=O)N[C@H](C(=O)O)C(C)C [N-acetylvaline], which “% Change in Aggressive PCA” value is on record?
Answer: 66.01%

Question: With Nc1ncnc2c1ncn2[C@@H]1O[C@H](CSCC[C@H](N)C(=O)O)[C@@H](O)[C@H]1O [S-adenosylhomocysteine (SAH)] as the compound, how does the “% Change in Aggressive PCA” value read?
Answer: 62.81%

Question: For C[C@H](O)[C@H](N)C(=O)O [allo-threonine], which “% Change in Aggressive PCA” value is on record?
Answer: 307.6%

Question: With O=C[C@@H](O)[C@H](O)[C@H](O)CO [arabinose] as the compound, how does the “% Change in Aggressive PCA” value read?
Answer: 148.4557%

Question: For OC[C@@H](O)C(O)[C@H](O)CO [arabitol], which “% Change in Aggressive PCA” value is on record?
Answer: 98.61%

Question: Which “% Change in Aggressive PCA” value does the source give for O=C1O[C@H]([C@@H](O)CO)C(O)=C1O [ascorbate (Vitamin C)] here?
Answer: 176%

Question: For C[N+](C)(C)CC(=O)O [betaineQUM], which “% Change in Aggressive PCA” value is on record?
Answer: 111.1%

Question: Which “% Change in Aggressive PCA” value does the source give for O=C(O)/C=C(/CC(=O)O)C(=O)O [cis-aconitate] here?
Answer: −25.83%

Question: Which “% Change in Aggressive PCA” value does the source give for O=C(O)CC(O)(CC(=O)O)C(=O)O [citrate] here?
Answer: 159.3%

Question: Which “% Change in Aggressive PCA” value does the source give for CN(CC(=O)O)C(=N)N [creatine] here?
Answer: 239.6%

Question: For C[C@]12CC[C@H](OS(=O)(=O)O)CC1=CC[C@@H]1[C@@H]2CC[C@]2(C)C(=O)CC[C@@H]12 [dehydroisoandrosterone sulfate (DHEA-S)], which “% Change in Aggressive PCA” value is on record?
Answer: 153.8%

Question: For CN(C)CC(=O)O [dimethylglycine], which “% Change in Aggressive PCA” value is on record?
Answer: 89.87%

Question: Which “% Change in Aggressive PCA” value does the source give for OC[C@@H](O)[C@H](O)[C@H](O)[C@@H](O)CO [galactitol-dulcitol-] here?
Answer: 352.7%

Question: With CC[C@H](C)[C@H](NC(=O)CC[C@H](N)C(=O)O)C(=O)O [gamma-glutamylisoleucine*] as the compound, how does the “% Change in Aggressive PCA” value read?
Answer: 83.47%

Question: For CC(C)C[C@H](NC(=O)CC[C@H](N)C(=O)O)C(=O)O [gamma-glutamylleucine], which “% Change in Aggressive PCA” value is on record?
Answer: 100.9%

Question: With N[C@@H](CCC(=O)N[C@@H](Cc1ccc(O)cc1)C(=O)O)C(=O)O [gamma-glutamyltyrosine] as the compound, how does the “% Change in Aggressive PCA” value read?
Answer: 199.7%

Question: Which “% Change in Aggressive PCA” value does the source give for N[C@@H](CCC(=O)N[C@@H](Cc1ccccc1)C(=O)O)C(=O)O [gammaglutamylphenylalanine] here?
Answer: 116.5%

Question: With CC(C)[C@H](NC(=O)[C@@H](N)CCC(=O)O)C(=O)O [glutamylvaline] (H-Glu-Val-OH) as the compound, how does the “% Change in Aggressive PCA” value read?
Answer: 53.61%

Question: Which “% Change in Aggressive PCA” value does the source give for O=P(O)(O)OCC(O)CO (stereo not shown) [glycerol 3-phosphate (G3P)] here?
Answer: 96.66%

Question: Which “% Change in Aggressive PCA” value does the source give for C[N+](C)(C)CCOP(=O)([O-])OC[C@H](O)CO [glycerophosphorylcholine (GPC)] here?
Answer: −31%

Question: Which “% Change in Aggressive PCA” value does the source give for NCC(=O)O [glycine] here?
Answer: 51.52%

Question: With O=C(O)CO [glycolate (hydroxyacetate)] as the compound, how does the “% Change in Aggressive PCA” value read?
Answer: 103.8%

Question: With NCC(=O)N1CCC[C@H]1C(=O)O [glycylproline] (H-Gly-Pro-OH) as the compound, how does the “% Change in Aggressive PCA” value read?
Answer: 81.32%

Question: With O=C1O[C@@H]([C@H](O)CO)[C@@H](O)[C@H]1O [gulono-1-4-lactone] as the compound, how does the “% Change in Aggressive PCA” value read?
Answer: 61.59%

Question: For COc1cc(CC(=O)O)ccc1O [homovanillate (HVA)], which “% Change in Aggressive PCA” value is on record?
Answer: 87.32%

Question: For O=C(O)CNCC(=O)O [iminodiacetate-IDA-], which “% Change in Aggressive PCA” value is on record?
Answer: 44.48%

Question: For O=C(O)Cc1c[nH]c2ccccc12 [indoleacetate*], which “% Change in Aggressive PCA” value is on record?
Answer: 105.9%

Question: With O=C(O)C(O)Cc1c[nH]c2ccccc12 (stereo not shown) [indolelactate] as the compound, how does the “% Change in Aggressive PCA” value read?
Answer: 101.8%

Question: Which “% Change in Aggressive PCA” value does the source give for CC(C)C(=O)O[C@H](CC(=O)[O-])C[N+](C)(C)C [isobutyrylcarnitine] here?
Answer: 55.35%

Question: Which “% Change in Aggressive PCA” value does the source give for CC[C@H](C)[C@H](N)C(=O)O [isoleucine] here?
Answer: 54.7%

Question: With Nc1ccccc1C(=O)CC(N)C(=O)O (stereo not shown) [kynurenine] as the compound, how does the “% Change in Aggressive PCA” value read?
Answer: 132.4%

Question: Which “% Change in Aggressive PCA” value does the source give for OC[C@H]1O[C@@H](O[C@H]2[C@H](O)[C@@H](O)[C@@H](O)O[C@@H]2CO)[C@H](O)[C@@H](O)[C@H]1O [lactose] here?
Answer: 108.8%

Question: With OC[C@H]1OC(O)[C@@H](O)[C@@H](O)[C@@H]1O (stereo partly shown) [mannose] as the compound, how does the “% Change in Aggressive PCA” value read?
Answer: 108%

Question: With CSCC[C@H](N)C(=O)O [methionine] as the compound, how does the “% Change in Aggressive PCA” value read?
Answer: 93.23%

Question: For NCCO [monoethanolamine], which “% Change in Aggressive PCA” value is on record?
Answer: 159.4%

Question: With Cn1c(=O)[nH]c2ncn(C)c2c1=O [paraxanthine] as the compound, how does the “% Change in Aggressive PCA” value read?
Answer: −63.9%

Question: Which “% Change in Aggressive PCA” value does the source give for O=C(O)CNC(=O)Cc1ccccc1 [phenylacetylglycine] here?
Answer: 90.17%

Question: Which “% Change in Aggressive PCA” value does the source give for N[C@@H](Cc1ccccc1)C(=O)O [phenylalanine] here?
Answer: 57.32%

Question: For O=c1[nH]cc([C@@H]2O[C@H](CO)[C@@H](O)[C@H]2O)c(=O)[nH]1 [pseudouridine], which “% Change in Aggressive PCA” value is on record?
Answer: 54.52%

Question: Which “% Change in Aggressive PCA” value does the source give for Cc1ncc(CO)c(C=O)c1O [pyridoxal] here?
Answer: 54.86%

Question: For CC(=O)C(=O)O [pyruvate], which “% Change in Aggressive PCA” value is on record?
Answer: 62.15%

Question: For O=C(O)c1cccnc1C(=O)O [quinolinate], which “% Change in Aggressive PCA” value is on record?
Answer: 61.92%

Question: Which “% Change in Aggressive PCA” value does the source give for O=C(O)[C@H](O)[C@H](O)[C@H](O)CO [ribonate] here?
Answer: 100.4%

Question: Which “% Change in Aggressive PCA” value does the source give for CNCC(=O)O [sarcosine, N-methylglycine] here?
Answer: 89.66%

Question: Which “% Change in Aggressive PCA” value does the source give for N[C@@H](CO)C(=O)O [serine] here?
Answer: 80.6%

Question: For NCCCNCCCCNCCCN [spermine], which “% Change in Aggressive PCA” value is on record?
Answer: −78.27%

Question: With O=C(O)[C@H](O)[C@@H](O)CO [threonate] as the compound, how does the “% Change in Aggressive PCA” value read?
Answer: 94.31%

Question: With C[C@@H](O)[C@H](N)C(=O)O [threonine] as the compound, how does the “% Change in Aggressive PCA” value read?
Answer: 77.88%

Question: Which “% Change in Aggressive PCA” value does the source give for Cc1c[nH]c(=O)[nH]c1=O [thymine] here?
Answer: 71.13%

Question: For N[C@@H](Cc1c[nH]c2ccccc12)C(=O)O [tryptophan], which “% Change in Aggressive PCA” value is on record?
Answer: 80.31%

Question: For N[C@@H](Cc1ccc(O)cc1)C(=O)O [tyrosine], which “% Change in Aggressive PCA” value is on record?
Answer: 99.34%

Question: With Oc1nc(O)c2nc(O)[nH]c2n1 [urate-] as the compound, how does the “% Change in Aggressive PCA” value read?
Answer: −49.86%

Question: With O=C(O)/C=C/c1cnc[nH]1 [urocanate] as the compound, how does the “% Change in Aggressive PCA” value read?
Answer: 55.54%

Question: Which “% Change in Aggressive PCA” value does the source give for CC(C)[C@H](N)C(=O)O [valine] here?
Answer: 132.4%

Question: With O=C[C@H](O)[C@@H](O)[C@H](O)CO [xylose] as the compound, how does the “% Change in Aggressive PCA” value read?
Answer: 79.58%

Question: With azelate (nonanedioate) as the compound, how does the “% Change in Aggressive PCA” value read?
Answer: 207.3%

Question: Which “% Change in Aggressive PCA” value does the source give for fumarate here?
Answer: −27.16%

Question: With glucarate (saccharate) as the compound, how does the “% Change in Aggressive PCA” value read?
Answer: 78.74%

Question: Which “% Change in Aggressive PCA” value does the source give for gluconate here?
Answer: 135.4%

Question: For lactate, which “% Change in Aggressive PCA” value is on record?
Answer: −29.29%

Question: Which “% Change in Aggressive PCA” value does the source give for mesaconate (methylfumarate) here?
Answer: −48.02%

Counter-ions that a name gives are not always drawn. Where a SMILES comes first, the peptide text is derived from it.
